Library screen at single concentrations

By UniProt entry, the sequences of proteins in these tests, tags left out.
UniProt I6X8D2, whole entry: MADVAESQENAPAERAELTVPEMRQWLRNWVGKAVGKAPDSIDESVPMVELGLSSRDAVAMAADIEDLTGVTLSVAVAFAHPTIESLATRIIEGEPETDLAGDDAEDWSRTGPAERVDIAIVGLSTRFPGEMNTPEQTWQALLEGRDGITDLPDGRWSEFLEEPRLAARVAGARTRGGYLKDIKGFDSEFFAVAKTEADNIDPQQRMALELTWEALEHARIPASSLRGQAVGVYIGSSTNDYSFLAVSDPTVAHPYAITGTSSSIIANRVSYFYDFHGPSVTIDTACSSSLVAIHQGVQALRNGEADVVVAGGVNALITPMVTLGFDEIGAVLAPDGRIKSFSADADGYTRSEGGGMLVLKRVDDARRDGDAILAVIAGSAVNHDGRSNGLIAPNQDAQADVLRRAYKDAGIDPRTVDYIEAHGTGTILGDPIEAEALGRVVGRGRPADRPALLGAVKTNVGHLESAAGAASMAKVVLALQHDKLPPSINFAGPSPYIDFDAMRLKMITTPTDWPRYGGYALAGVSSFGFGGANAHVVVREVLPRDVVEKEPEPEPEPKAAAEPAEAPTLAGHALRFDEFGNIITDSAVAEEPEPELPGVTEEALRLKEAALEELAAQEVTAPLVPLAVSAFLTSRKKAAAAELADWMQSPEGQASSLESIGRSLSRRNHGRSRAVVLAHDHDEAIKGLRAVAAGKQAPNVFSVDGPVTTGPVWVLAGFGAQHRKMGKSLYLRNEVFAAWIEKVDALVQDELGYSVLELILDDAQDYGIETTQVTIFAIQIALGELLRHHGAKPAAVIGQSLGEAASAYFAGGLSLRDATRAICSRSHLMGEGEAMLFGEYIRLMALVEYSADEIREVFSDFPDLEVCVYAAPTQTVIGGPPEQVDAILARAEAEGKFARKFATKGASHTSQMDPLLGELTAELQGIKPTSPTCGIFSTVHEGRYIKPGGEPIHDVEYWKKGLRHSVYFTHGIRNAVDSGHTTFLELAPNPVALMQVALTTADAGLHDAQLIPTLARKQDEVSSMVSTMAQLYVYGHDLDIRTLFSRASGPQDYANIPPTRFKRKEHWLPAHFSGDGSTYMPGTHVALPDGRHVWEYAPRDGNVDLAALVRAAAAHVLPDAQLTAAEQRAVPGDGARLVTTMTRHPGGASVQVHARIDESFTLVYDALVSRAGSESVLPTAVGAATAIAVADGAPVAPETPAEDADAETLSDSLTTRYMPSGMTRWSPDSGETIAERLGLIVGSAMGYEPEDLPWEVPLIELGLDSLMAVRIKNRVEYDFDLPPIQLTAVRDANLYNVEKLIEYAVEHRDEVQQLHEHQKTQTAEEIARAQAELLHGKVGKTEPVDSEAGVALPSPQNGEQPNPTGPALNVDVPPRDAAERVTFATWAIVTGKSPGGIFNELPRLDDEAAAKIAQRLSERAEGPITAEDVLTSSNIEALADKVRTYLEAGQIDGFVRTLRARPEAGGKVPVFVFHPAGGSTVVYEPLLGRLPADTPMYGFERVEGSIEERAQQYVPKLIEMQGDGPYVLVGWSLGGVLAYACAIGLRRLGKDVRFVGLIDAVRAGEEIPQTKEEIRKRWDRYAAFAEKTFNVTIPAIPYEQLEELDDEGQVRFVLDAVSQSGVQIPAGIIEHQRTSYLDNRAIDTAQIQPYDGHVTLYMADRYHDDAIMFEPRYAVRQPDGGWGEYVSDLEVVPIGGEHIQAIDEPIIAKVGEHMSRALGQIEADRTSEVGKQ
UniProt P9WNZ1, whole entry: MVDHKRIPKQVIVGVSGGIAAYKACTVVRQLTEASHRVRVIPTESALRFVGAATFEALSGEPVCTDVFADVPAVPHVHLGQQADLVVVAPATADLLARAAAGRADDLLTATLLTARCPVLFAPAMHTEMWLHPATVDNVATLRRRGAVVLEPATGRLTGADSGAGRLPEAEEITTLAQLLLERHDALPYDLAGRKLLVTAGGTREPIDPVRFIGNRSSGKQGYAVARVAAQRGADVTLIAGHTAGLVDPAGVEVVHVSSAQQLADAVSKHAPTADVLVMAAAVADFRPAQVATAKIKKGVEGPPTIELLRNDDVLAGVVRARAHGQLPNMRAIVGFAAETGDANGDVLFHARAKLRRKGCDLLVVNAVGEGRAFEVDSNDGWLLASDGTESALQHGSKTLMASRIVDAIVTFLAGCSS
UniProt P9WFT3, whole entry: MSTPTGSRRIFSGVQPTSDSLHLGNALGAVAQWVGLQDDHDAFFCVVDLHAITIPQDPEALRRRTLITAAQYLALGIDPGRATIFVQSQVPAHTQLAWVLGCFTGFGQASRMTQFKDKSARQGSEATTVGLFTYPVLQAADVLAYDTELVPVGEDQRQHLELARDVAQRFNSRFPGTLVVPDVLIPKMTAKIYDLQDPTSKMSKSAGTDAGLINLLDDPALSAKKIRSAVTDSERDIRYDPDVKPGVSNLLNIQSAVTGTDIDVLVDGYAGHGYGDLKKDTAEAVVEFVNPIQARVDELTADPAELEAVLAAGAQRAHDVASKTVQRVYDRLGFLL

Values are the deposited “Percent Effect”, in %. How 0% and 100% were set is not recorded. Most values in the screen are low, and negative values occur. The compounds are a random part of those screened. Two or more numbers in one place are separate tests of the same structure; such repeats can differ widely. A dash means the value is not listed here; it may have been measured.

A: 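Enzyme assay of the thioesterase domain of polyketide synthase 13; the read-out is not stated. Target: Polyketide synthase Pks13, Mycobacterium tuberculosis (UniProt I6X8D2). Tested at 30 µM. The record gives no direction; the compounds picked for IC50 retests had high values, so higher reads as stronger inhibition. Of about 67,000 compounds tested this way, about 300 (0.46%) reached 50% or more in at least one test.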
B: 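Coenzyme A biosynthesis protein CoaBC, Mycobacterium tuberculosis (UniProt P9WNZ1). Enzyme assay of CoaBC with a phosphate dye (Biomol Green) read at 650 nm. Compounds at 30 µM. Direction is inferred from only a few compounds that gave an IC50; most scored high, so higher reads as stronger inhibition. Most strong results did not repeat in a second test. About 67,000 compounds were tested under these conditions; 0.06% (about 40) showed 50% or more at least once.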
C: 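Cell assay of Leishmania donovani living inside macrophages; the read-out is not stated. Concentration: 30 µM. The record gives no direction; compounds that gave an IC50 in retests scored well above the rest, so higher reads as stronger inhibition. Of about 69,000 compounds tested this way, about 1,000 (1.5%) reached 50% or more in at least one test.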
D: 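Enzyme assay of tryptophanyl-tRNA synthetase; the read-out is not stated. Target: Tryptophan-tRNA ligase, Mycobacterium tuberculosis (UniProt P9WFT3). Tested at 10 µM. Higher most likely means stronger inhibition; the record gives no direction and few retests gave an IC50. About 65,000 compounds were tested under these conditions; 0.098% (about 64) showed 50% or more at least once.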

| # | structure | A | B | C | D |
|---|---|---|---|---|---|
| 1 | `COc1ccc(C(C)(C)C)cc1CN1CCn2c(CO)nnc2C1.O=C(O)CC(O)(CC(=O)O)C(=O)O` | - | - | 18.31% and 4.866% | - |
| 2 | `CCN(CC)C(=O)c1ccc(NC(=O)CNc2ccc(F)cc2Cl)cc1` | -32.97% | 2.294% | 22.33% | -9.216% |
| 3 | `CN(C)CC1(O)CCCN(Cc2cnc(-c3ccco3)nc2)CC1` (centres undefined) | 4.894% | 4.024% | 26.59% | 1.457% |
| 4 | `CC(=O)N1CCC2(CC1)CNc1ccc(F)cc12` | -4.667% | -18.75% | 2.255% | 6.417% |
| 5 | `COCC(=O)N1CCC2(CC1)CNc1ccc(F)cc12.O=C(O)C(F)(F)F` | - | - | 18.81% | - |
| 6 | `O=C(CC1CC1)NCc1cn2c(n1)CN(CC1CC1)CC2` | -7.82% | -6.218% | - | -1.233% |
| 7 | `COCC1CCN(CCOc2ccc(C#N)cc2OC)CC1` | -22.68% | 1.138% | -1.163% | -1.467% |
| 8 | `COc1ccc(NC(=O)Cn2nc(C)c(C)cc2=O)c(OC)c1` | 13.48% | 3.981% | 8.832% | 5.435% |
| 9 | `COc1cnc(N2C[C@H](CO)C[C@H](CN3CCOCC3)C2)nc1` | 0.1846% | -5.455% | 15.41% | -1.933% |
| 10 | `COCCN(CC(C)C)C(=O)c1cccc(Nc2cnccn2)c1` | -0.9553% | 1.453% | -29.08% | 2.846% |
| 11 | `[H][C@@]12CC(=O)N(Cc3csc(C)n3)[C@@]1([H])CCN2S(C)(=O)=O` | - | - | -12.74% | - |
| 12 | `c1cncc(OC[C@]23COC[C@H]2CN(Cc2nccs2)C3)c1` | -6.849% | 3.713% | - | 6.17% |
| 13 | `CCOc1ccc(C(=O)CCC(=O)NCCc2nncn2CC)cc1C` | 7.581% | -0.1218% | -15.43% | -1.145% |
| 14 | `O=C(O)C(F)(F)F.O=C(O)C(F)(F)F.[H][C@@]12COC[C@H](C(=O)NCc3ccccn3)[C@]1([H])CN(Cc1ccoc1)C2` | - | - | -18.16% | - |
| 15 | `COCCN(CCOC)C(=O)c1cccc(Cn2nc(C)cc2C)c1` | -3.038% | 0.8783% | 8.754% | -2.129% |
| 16 | `[H][C@@]12CCN(c3ncccn3)C[C@@]1([H])[C@H](C(=O)NC(C)C)CCO2` | - | - | -1.516% | - |
| 17 | `Cc1cccc(C(=O)N2CCC(c3n[nH]c(C4CC4)n3)CC2)c1` | -19.16% | 5.98% | -9.492% | 18.66% |
| 18 | `COc1ccc(NC(=O)c2nc3ccccc3n(C)c2=O)c(OC)c1` | 1.374% | 0.361% | 0.6718% | 0.5869% |
| 19 | `CCc1ncncc1C(=O)NCCNS(=O)(=O)c1ccccc1` | 7.45% | 9.524% and 73.18% | -8.354% | -0.1487% |
| 20 | `CCOCCCNC(=O)C1(C)CCC(=O)N1c1cc(OC)ccc1OC` (centres undefined) | -3.593% | -1.186% | 6.319% | -0.5089% |
| 21 | `NC(=O)c1cc(CC2CCCN(Cc3cnccn3)CC2)ncn1` (centres undefined) | 8.528% | -3.804% | 4.928% | -10.56% |
| 22 | `CN(C)C(=O)NC1COC2(CCN(Cc3ccccc3)CC2)C1` (centres undefined) | -34.26% | 18.39% | - | -1.762% |
| 23 | `Cn1cc(Br)c(C(=O)NCCCn2cc(Cl)cn2)n1` | 8.854% | -8.152% | -10.14% | 3.728% |
| 24 | `O=C(O)C(F)(F)F.O=C1COC2(CCN(c3ncccn3)CC2)CN1` | - | - | 22.61% | - |
| 25 | `COc1coc(CN2CCCC(CCc3ccccc3C)C2)cc1=O` (centres undefined) | -14.07% | -1.613% | -18.33% | 1.005% |
| 26 | `O=c1c2ccccc2nc2n1C(CSc1ccc(Cl)cc1Cl)CN2` (centres undefined) | -4.691% | 1.451% | 18.36% | 2.214% |
| 27 | `CC(C)[C@@H]1CN(C(=O)NCc2ccco2)C[C@H]1NS(=O)(=O)N(C)C` | 18.19% | - | -8.87% | 7.637% |
| 28 | `O=C(O)C(F)(F)F.[H][C@@]12COC[C@]1(COCC)CN(Cc1cccc(OC)c1)C2` | - | - | 19.17% | - |
| 29 | `CCOc1ccc(Br)cc1S(=O)(=O)N(CC)Cc1ccc(N(C)C)cc1` | -11.05% | 5.987% | 35.74% | 2.761% |
| 30 | `Cc1nc(N2CCCCC2)ncc1-c1cc(O)[nH]n1` | -32.66% | -4.172% | -13.57% | 5.628% |
| 31 | `CCCN(CC1COc2ccccc2O1)C(=O)CCn1cncn1` (centres undefined) | -16.73% | 2.926% | -13.46% | 2.201% |
| 32 | `CCn1cc(CN2CCN(C(=O)c3cc(Br)cs3)CC2)c(C)n1` | -8.857% | 12.46% | -0.461% | 1.583% |
| 33 | `NC(=O)c1cn[nH]c1C1CCCN1C(=O)c1ccccn1` (centres undefined) | -16.01% | 8.314% | 19.4% | 4.416% |
| 34 | `CCN(Cc1cnn(C)c1)S(=O)(=O)c1ccc(NC(C)=O)cc1` | -9.73% | 2.545% | 10.76% | -3.232% |
| 35 | `O=C(c1cnn(-c2ccccc2F)c1)N1CCN(CCO)CC1` | -6.197% | 2.232% | 8.53% | 2.309% |
| 36 | `Cn1cccc1C(=O)NCc1cn2c(n1)CN(Cc1cccnc1)CC2` | 3.619% | 3.832% | - | -3.563% |
| 37 | `Cn1nc(Br)c2c(NCCSCCCO)ncnc21` | 4.251% | -3.418% | 16.26% | -0.4068% |
| 38 | `Cc1cc(CCC(=O)O)nc(C2CCCN2c2ccnc(C)n2)n1` (centres undefined) | 6.053% | 3.163% | 25.4% and 19.87% | 0.9855% |
| 39 | `CN(CCCOc1ccc(F)cc1)S(=O)(=O)c1cnn(C)c1` | -25.25% | 1.263% | 19.31% | -1.29% |
| 40 | `N#Cc1ccc(CNCCn2cccn2)c(F)c1` | -1.919% | 1.868% | -23.1% | 18.77% |
| 41 | `Cc1ccc(NCc2cn3c(n2)CN(Cc2ccc(C)o2)CC3)nn1.O=C(O)C(F)(F)F.O=C(O)C(F)(F)F` | - | - | 17.88% | - |
| 42 | `CC1CCCN(C(=O)CCc2cccnc2)C1` (centres undefined) | -28.9% | -0.7712% | 4.877% | 0.5508% |
| 43 | `COC1CC2(CCN(Cc3ccc4c(c3)OCO4)CC2)C1` | -5.181% | 1.693% | 41.48% | -6.183% |
| 44 | `Cc1cc(CS(=O)(=O)NC2CCCCC2)on1` | -20.84% | 9.611% | 23.4% | 0.4914% |
| 45 | `Cc1ccccc1OCCCC(=O)N1CCCC(n2cncn2)C1` (centres undefined) | -22.28% | 5.263% | -9.18% | 8.824% |
| 46 | `Cn1cc(CNC2CCc3c(ccc(=O)n3Cc3ccncc3)C2)cn1.O=C(O)C(F)(F)F.O=C(O)C(F)(F)F` (centres undefined) | - | - | 0.02882% | - |
| 47 | `CN(C)S(=O)(=O)c1ccc(-c2nc(C#N)c(NC(C)(C)C)o2)o1` | -2.584% | -3.39% | - | 3.605% |
| 48 | `Cc1cnc(N2CCC3(CC2)CN(Cc2cccs2)CCO3)nc1` | 6.74% | 5.939% | - | - |
| 49 | `Cc1ccc(S(=O)(=O)N2CC(C)Oc3ncccc32)c(C)c1` (centres undefined) | -40.8% | 7.595% | 55.69% | -4.128% |
| 50 | `CC(C)COC1CC2(CCN(Cc3nccn3C)CC2)C1` | -22.44% | 4.139% | - | -4.056% |
| 51 | `COc1ncnc(N)c1CNCC(C)Oc1ccccc1Cl` (centres undefined) | -12.28% | - | 2.255% | -5.16% |
| 52 | `O=C(NC[C@H]1C[C@@H]2CCN1C[C@@H]2CN1CCOCC1)Nc1ccsc1` | -32.77% | -2.483% | - | -2.184% |

3 of the entries, repeated:

| structure | A | B | C | D |
|---|---|---|---|---|
| `Cn1cccc1C(=O)NCc1cn2c(n1)CN(Cc1cccnc1)CC2` | 3.619% | 3.832% | - | -3.563% |
| `O=C(c1cnn(-c2ccccc2F)c1)N1CCN(CCO)CC1` | -6.197% | 2.232% | 8.53% | 2.309% |
| `COc1ccc(C(C)(C)C)cc1CN1CCn2c(CO)nnc2C1.O=C(O)CC(O)(CC(=O)O)C(=O)O` | - | - | 18.31% and 4.866% | - |

Data taken from ChEMBL document CHEMBL3988442, “University of Dundee, Small-Polar-MMV Screening Library” (2021).